Earlier results, collected in US20240390374A1, “MOCETINOSTAT IN COMBINATION WITH CHEMOTHERAPY TO TREAT RHABDOMYOSARCOMA” (The Regents of the University of California, priority 2021, published 2024).
At least one structure is not confirmed: it was looked up by name or label, or the drawing left a doubt.

Test system: human tumor xenograft models
Settings: Fournel et al., 2008; cited from earlier work

Nc1ccccc1NC(=O)c1ccc(CNc2nccc(-c3cccnc3)n2)cc1 [mocetinostat]
inhibition of tumor growth: dose-dependent inhibition of tumor growth
